Assay results from PMC9740361.
These are yes or no findings as the source states them, for the method shown. In cells and extracts the contact can be indirect. A yes stands for co-enrichment or nearness to the bait. Other partners may have been found. Sequences can lack the tags named with a protein.

Protein sequences, listed by entry. Tags and fused reporters are not part of them.
UniProt P35579: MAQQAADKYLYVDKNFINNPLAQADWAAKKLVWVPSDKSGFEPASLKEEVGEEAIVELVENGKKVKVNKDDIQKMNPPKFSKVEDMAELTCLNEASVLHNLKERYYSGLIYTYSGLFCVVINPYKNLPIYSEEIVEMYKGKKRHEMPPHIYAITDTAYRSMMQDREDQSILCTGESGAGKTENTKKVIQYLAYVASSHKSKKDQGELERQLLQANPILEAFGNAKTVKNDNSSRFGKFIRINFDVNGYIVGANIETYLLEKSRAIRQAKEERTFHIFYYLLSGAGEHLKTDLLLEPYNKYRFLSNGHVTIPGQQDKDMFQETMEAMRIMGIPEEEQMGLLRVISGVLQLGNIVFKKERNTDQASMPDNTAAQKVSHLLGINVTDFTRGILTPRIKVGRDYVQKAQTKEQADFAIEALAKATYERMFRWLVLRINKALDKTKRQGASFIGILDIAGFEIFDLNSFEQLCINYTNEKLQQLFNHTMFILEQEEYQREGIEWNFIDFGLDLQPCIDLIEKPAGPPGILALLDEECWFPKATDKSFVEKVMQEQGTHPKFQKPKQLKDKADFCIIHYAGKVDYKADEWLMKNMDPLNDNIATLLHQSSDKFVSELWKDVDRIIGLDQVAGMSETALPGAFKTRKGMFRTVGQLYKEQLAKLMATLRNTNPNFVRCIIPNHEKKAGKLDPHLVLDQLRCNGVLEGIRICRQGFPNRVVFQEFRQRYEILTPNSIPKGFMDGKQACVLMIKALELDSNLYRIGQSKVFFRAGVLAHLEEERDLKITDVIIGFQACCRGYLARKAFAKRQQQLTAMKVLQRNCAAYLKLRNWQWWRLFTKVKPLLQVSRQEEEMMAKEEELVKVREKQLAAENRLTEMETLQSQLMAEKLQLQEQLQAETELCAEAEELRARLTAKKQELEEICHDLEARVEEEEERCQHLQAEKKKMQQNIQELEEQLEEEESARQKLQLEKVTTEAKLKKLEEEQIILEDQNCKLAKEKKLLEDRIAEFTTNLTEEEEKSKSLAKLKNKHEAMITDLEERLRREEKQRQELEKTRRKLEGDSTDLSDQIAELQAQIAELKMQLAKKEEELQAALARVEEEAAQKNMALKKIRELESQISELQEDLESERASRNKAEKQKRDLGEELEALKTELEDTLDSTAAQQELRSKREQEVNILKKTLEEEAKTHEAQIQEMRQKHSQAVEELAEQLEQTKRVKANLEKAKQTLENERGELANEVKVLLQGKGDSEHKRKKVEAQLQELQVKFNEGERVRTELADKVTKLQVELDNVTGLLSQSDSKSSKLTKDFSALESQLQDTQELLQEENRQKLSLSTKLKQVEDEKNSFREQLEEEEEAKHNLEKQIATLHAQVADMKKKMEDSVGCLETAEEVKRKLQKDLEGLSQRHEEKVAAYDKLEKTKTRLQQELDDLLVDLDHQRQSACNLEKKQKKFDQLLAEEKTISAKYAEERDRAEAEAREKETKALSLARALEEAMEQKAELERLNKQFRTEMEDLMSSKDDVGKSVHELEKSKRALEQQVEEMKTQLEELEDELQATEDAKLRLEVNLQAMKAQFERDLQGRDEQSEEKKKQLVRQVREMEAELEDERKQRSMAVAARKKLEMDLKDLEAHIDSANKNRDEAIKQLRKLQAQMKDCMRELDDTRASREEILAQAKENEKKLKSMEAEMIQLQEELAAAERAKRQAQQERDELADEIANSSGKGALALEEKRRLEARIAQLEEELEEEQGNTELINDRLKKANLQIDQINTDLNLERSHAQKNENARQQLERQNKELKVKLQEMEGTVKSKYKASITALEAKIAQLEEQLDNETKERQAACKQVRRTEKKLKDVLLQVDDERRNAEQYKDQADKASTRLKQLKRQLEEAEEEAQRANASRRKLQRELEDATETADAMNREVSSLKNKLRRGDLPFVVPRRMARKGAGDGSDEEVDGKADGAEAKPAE

Target: T1, Nucleosome assembly protein 1-like 5 (NAP1L5), Flag-tagged (human) (UniProt Q96NT1)
T1 sequence: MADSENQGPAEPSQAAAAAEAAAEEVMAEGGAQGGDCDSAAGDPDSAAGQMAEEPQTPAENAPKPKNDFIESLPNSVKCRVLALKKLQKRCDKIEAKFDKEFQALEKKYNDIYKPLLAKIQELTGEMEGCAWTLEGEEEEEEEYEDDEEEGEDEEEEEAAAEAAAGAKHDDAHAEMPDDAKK
Assay: affinity purification with mass spectrometry; FLAG IP (FLAGIPT1 kit, Sigma) from lysate of MHCC97H cells overexpressing FLAG-labelled NAP1L5, lysed at 4°C; mass spectrometry of tryptic fragments

In the case of “MYH9 (nonmuscle myosin, NMIIA) (from UniProt P35579 1-1960)”, the binding is reported as “binds”.
